The other results are listed elsewhere or left out. Values are raw readings; no control value is given beside them.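 In the initial screen, polymyxin B was used at a concentration that permeabilizes Salmonella's outer membrane but not its inner membrane. Maximum growth was set by DMSO wells with or without polymyxin B. Since plates varied, data were ranked per plate, and compounds giving the lowest OD600 advanced as hits.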
Test system: Salmonella enterica serovar Typhimurium SL1344
Assay: bacterial growth OD600 after 18 h with compound and polymyxin B; higher = more bacterial growth (less inhibition)
Conditions: 50 µM, Mueller-Hinton broth

## COc1ccccc1NC(=O)NC1CC(=O)N(Cc2cccc(F)c2)C1 (configuration not stated)
Polymyxin B 1 µg/mL
  bacterial growth OD600: 0.933

## CCN1CCCCC1C(=O)N1CCOc2ccc(CN3CCC(OCc4ccccc4)CC3)cc2C1 (configuration not stated)
Polymyxin B 0.75 µg/mL
  bacterial growth OD600: 0.95

## COCc1c(C(=O)NCc2ccc(OC)cc2OC)cnn1-c1nccc(-c2cc(C)sc2C)n1
Polymyxin B 0.75 µg/mL
  bacterial growth OD600: 0.132

## CC(=O)c1ccc(C(=O)N2CCC(C(Cc3ccccc3C)N(C)C(=O)Cn3cccn3)CC2)s1 (configuration not stated)
Polymyxin B 0.75 µg/mL
  bacterial growth OD600: 0.88

## COc1ccccc1CCC(=O)N1CCc2onc(-c3ccccc3F)c2C1
Polymyxin B 0.75 µg/mL
  bacterial growth OD600: 0.521

## CCn1nc(C)c(CNCc2c(C(=O)N3CCCC3)nc3sccn23)c1C
Polymyxin B 1 µg/mL
  bacterial growth OD600: 0.87

## COCC1CCN(C(=O)c2ccc(OC3CCN(C(=O)C4CC4)CC3)cc2)CC1
Polymyxin B 1 µg/mL
  bacterial growth OD600: 0.86

## CC(c1ccon1)N(C)C(=O)c1coc(COc2ccccc2F)n1 (configuration not stated)
Polymyxin B 0.75 µg/mL
  bacterial growth OD600: 0.858

## COc1ccc(NC(=O)CCC2CCCN(C(=O)c3csc(C(C)=O)c3)C2)cc1Cl (configuration not stated)
Polymyxin B 1 µg/mL
  bacterial growth OD600: 0.928

## CCN(CC1CCN(CCc2ccccc2C)CC1)C(=O)c1cccs1
Polymyxin B 1 µg/mL
  bacterial growth OD600: 0.905

## COC(=O)c1ccc(-c2nc(CN(C)Cc3nonc3C)c(C)o2)cc1
Polymyxin B 1 µg/mL
  bacterial growth OD600: 0.901

## COc1ccc(-c2ccccc2NC(=O)C2CCCN(CC(C)C)C2)cc1 (configuration not stated)
Polymyxin B 1 µg/mL
  bacterial growth OD600: 0.868

## CC(C)CN(C)C(=O)c1coc(COc2cccc(F)c2F)n1
Polymyxin B 1 µg/mL
  bacterial growth OD600: 0.929

## COCCC(=O)N1CCC(Oc2ccc(C(=O)N3CCCC(COC)C3)cc2)CC1 (configuration not stated)
Polymyxin B 1 µg/mL
  bacterial growth OD600: 0.811

## COc1ccccc1CN1C[C@@H]2C[C@@H](c3ccccc3C(F)(F)F)N3CCC[C@@]23C1=O
Polymyxin B 0.75 µg/mL
  bacterial growth OD600: 0.428

## CCN(CC1CCN(CCc2ccccc2C)CC1)C(=O)C1=CCCC1
Polymyxin B 1 µg/mL
  bacterial growth OD600: 0.917

## CN(CCn1ccnc1)c1ccc(-c2nc(Cc3ccc(F)cc3)no2)cn1
Polymyxin B 0.75 µg/mL
  bacterial growth OD600: 0.693

## CC1CN(CC(=O)NCC(c2cccnc2)N2CCOCC2)Cc2cc(Cl)ccc2O1 (configuration not stated)
Polymyxin B 0.75 µg/mL
  bacterial growth OD600: 0.74

## COc1cc(CN2CCN(Cc3cccc(SC)c3)CC2CCO)cc(OC)c1 (configuration not stated)
Polymyxin B 1 µg/mL
  bacterial growth OD600: 0.924

## COCC(=O)Nc1cc(C(=O)N(C)Cc2ccc3nccnc3c2)c2c(c1)nc(C1CCC1)n2C
Polymyxin B 0.75 µg/mL
  bacterial growth OD600: 0.954

## COc1cccc(OCc2nc(C(=O)N(C)Cc3csc(C)n3)co2)c1
Polymyxin B 1 µg/mL
  bacterial growth OD600: 1.01

## CCOc1ccc2nc(N3CCCC(C(=O)NCCCn4cccn4)C3)nc(C)c2c1 (configuration not stated)
Polymyxin B 0.75 µg/mL
  bacterial growth OD600: 0.44

## COCCN(C(=O)c1csc2nc(-c3cccc(Cl)c3)cn12)C(C)C
Polymyxin B 0.75 µg/mL
  bacterial growth OD600: 0.681

## Cc1nc(N2CCC(C(=O)N(C)Cc3ccsc3)CC2)nc2ccccc12
Polymyxin B 0.75 µg/mL
  bacterial growth OD600: 0.777

## CC(C)c1ccc(NC2CCCN(C(=O)c3ccc4c(c3)OCO4)C2)cc1 (configuration not stated)
Polymyxin B 1 µg/mL
  bacterial growth OD600: 0.005

## C=C(C)CNc1ccc(C(=O)N2CCC(Cn3cccn3)CC2)cn1
Polymyxin B 1 µg/mL
  bacterial growth OD600: 1.2

## CCOc1cc(CN2CCC(C(Cc3ccccc3)N(C(=O)c3ccco3)C3CC3)CC2)ccc1O (configuration not stated)
Polymyxin B 0.75 µg/mL
  bacterial growth OD600: 0.878

## COCCN1CCN(Cc2nc(Cc3ccc(OC)c(OC)c3)no2)CC1
Polymyxin B 1 µg/mL
  bacterial growth OD600: 0.821

## CC#CC(=O)N1CCCC(CCc2ccc(OC)cc2)C1 (configuration not stated)
Polymyxin B 0.75 µg/mL
  bacterial growth OD600: 0.566

## Cc1ccccc1Oc1ncccc1CNC(=O)c1ccnn1C
Polymyxin B 0.75 µg/mL
  bacterial growth OD600: 0.916

## Cc1c(C(C)NC2CCN(C(C)C)CC2)cnn1-c1ccc(F)cc1F (configuration not stated)
Polymyxin B 1 µg/mL
  bacterial growth OD600: 0.914

## O=C(CCC1CCN(C(=O)[C@H]2C[C@@H]3C=C[C@H]2C3)CC1)N1CCC(Cc2ccccc2)CC1
Polymyxin B 1 µg/mL
  bacterial growth OD600: 1.04
